Laboratory results taken from PubChem BioAssay AID504834 (National Center for Advancing Translational Sciences (NCATS), 2011).
Among all 320,000 compounds or so, about 22,000 (6.9%) were called active. Inconclusive results, whose numbers are uncertain, are shown with a selection of clear calls. Calls come from the whole dose curve; as a rule, active = well fitted inhibition curve with a large enough effect; inconclusive = small, poorly fitted or top-dose-only effect, or another doubt; inactive = no such curve, though single readings can be large or run the other way. Potencies of inconclusive entries are doubtful fits and often do not repeat.

Assay: Primary qHTS for delayed death inhibitors of the malarial parasite plastid, 96 hour incubation
Conditions: P. falciparum luciferase reporter growth; series mostly up to 28.7 µM; activity change, negative = inhibition: at the top concentration
Outline: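 Two-generation exposure (96 h) targets delayed-death phenotype. Reporter parasites carrying integrated firefly luciferase, in red cells at 2% hematocrit and 0.05% parasitemia final, kept at 37 C, 5% CO2; luminescence loss indicates inhibition.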
% is set by controls: 0 for no effect and ±100 for the full control effect; potency is the fitted concentration of half-maximal effect.

Row | SMILES | activity change, negative = inhibition | Potency
1 | Cc1c(NC(=O)c2ccc(S(=O)(=O)N3CCOCC3)cc2)c(=O)n(-c2ccccc2)n1C | inactive: -12.1% | 
2 | Cc1cccn2c(/C=N/OCc3ccc(F)cc3)c(-c3ccc(Cl)cc3)nc12 |  | active: 11.7 µM
3 | COc1cc2c(cc1OC)CN(C(=O)CCCOc1ccc(Cl)cc1Cl)CC2 |  | inconclusive: 18.5 µM [inhibitor, single point]
4 | CCn1cc(C2C(C(=O)Nc3cc(C)ccn3)=C(C)NC3=C2C(=O)CC(C)(C)C3)c(C)n1 (stereo not drawn) |  | inconclusive: 18.5 µM [inhibitor, single point]
5 | CN1CCN(C(=O)c2ccc(Cn3cc(Cl)cn3)o2)CC1 |  | inconclusive: 6.57 µM [inhibitor, partial curve]
6 | CCN(CC)CCCC(C)NC1=NCCCCC1 (stereo not drawn) | inactive: 1.57% | 
7 | Cc1ccc(S(=O)(=O)N2CCCCC2)cc1NC(=O)C1CCC1 |  | inconclusive: 18.5 µM [inhibitor, single point]
8 | O=C(NC(=S)Nn1cnnc1)c1ccccc1 | inactive: 71.4% | 
9 | Cc1cc(C)c2c(N)c(C(=O)NC3CC3)sc2n1 |  | inconclusive: 16.5 µM [inhibitor, single point]
10 | COc1cccc(NC(=O)c2ccc(OC(F)(F)F)cc2)c1 | inactive: 125% | 
11 | O=C(N/N=C/c1c[nH]c2ccccc12)c1cccc(O)c1 | inactive: 288% | 
12 | CCC(c1c(C)n(C)n(-c2ccccc2)c1=O)c1c(C)n(C)n(-c2ccccc2)c1=O |  | inconclusive: 4.65 µM [inhibitor, partial curve]
13 | CCN(C(=O)CSc1nnc(-c2ccccc2)o1)c1c(N)n(Cc2ccccc2)c(=O)[nH]c1=O |  | inconclusive: 11.7 µM [inhibitor, partial curve, poor fit]
14 | COC(=O)c1ccc(CSc2nc3c(c(=O)n2-c2ccc(F)cc2)SCC3)o1 |  | inconclusive: 18.5 µM [inhibitor, single point]
15 | COc1ccc(C(=O)Nc2ccc3c(c2)nc(CCNC(C)=O)n3C)cc1 | inactive: 124% | 
16 | Cc1ccccc1Cn1cc(NC(=O)c2cc(C3CC3)on2)cn1 | inactive: -9.13% | 
17 | COc1ccccc1-c1c(C(F)(F)F)oc2cc(OC(=O)c3ccccc3[N+](=O)[O-])ccc2c1=O |  | inconclusive: 3.29 µM [inhibitor, full curve, poor fit]
18 | Cc1ccc(/C=N/NC(=O)c2ccc(C(=O)N/N=C/c3ccc(C)s3)o2)s1 |  | inconclusive: 18.5 µM [inhibitor, single point]
19 | CS(=O)(=O)N(CC(=O)N/N=C/c1cc2c(cc1Br)OCO2)c1ccccc1Br |  | inconclusive: 16.5 µM [inhibitor, partial curve, poor fit]
20 | C=CCC(CC=C)(NC(=O)c1ccccc1C(=O)O)c1ccccc1 |  | inconclusive: 14.7 µM [inhibitor, single point]
21 | O=C(Nc1ccn(Cc2ccccc2F)n1)c1ccc(COc2ccc(Br)cc2)cc1 | inactive: 1.71% | 
22 | O=C(NCCN1CCOCC1)c1cc(Cl)ccc1Cl |  | inconclusive: 0.0208 µM [inhibitor, full curve, poor fit]
23 | COc1ccc(C(=O)N2CCCCC2C(=O)Nc2ccc(-n3nc(C)cc3C)cc2)o1 (stereo not drawn) |  | active: 10.4 µM
24 | O=C(CSc1nnc(CNC(=O)c2ccco2)o1)Nc1ccccc1C(F)(F)F | inactive: -1.02% | 

Retrieved one by one from the list above (two):
Row | SMILES | activity change, negative = inhibition | Potency
12 | CCC(c1c(C)n(C)n(-c2ccccc2)c1=O)c1c(C)n(C)n(-c2ccccc2)c1=O |  | inconclusive: 4.65 µM [inhibitor, partial curve]
22 | O=C(NCCN1CCOCC1)c1cc(Cl)ccc1Cl |  | inconclusive: 0.0208 µM [inhibitor, full curve, poor fit]

More entries follow.

Row | SMILES | activity change, negative = inhibition | Potency
25 | COc1cc(/C=N\NC(=O)CN2CCOCC2)ccc1OCC(=O)Nc1ccc(C)c(C)c1 |  | active: 9.28 µM
26 | O=C(c1ccco1)N1CCC(c2ccccc2)C1 (stereo not drawn) | inactive: 17.8% | 
27 | COc1ccc(C2=CC(=O)C[C@H](c3ccc(F)cc3)C2)c(OC)c1 |  | inconclusive: 9.28 µM [inhibitor, single point]
28 | COc1cc(/C=C/C(=O)OCC(=O)c2c(N)n(C)c(=O)n(C)c2=O)ccc1OCC#N |  | inconclusive: 18.5 µM [inhibitor, single point]
29 | O=[N+]([O-])c1cccc(/C=N/n2c(COc3ccccc3)n[nH]c2=S)c1 |  | inconclusive: 5.22 µM [inhibitor, partial curve]
30 | CCOc1ccc2nc(NC(=O)COC)sc2c1 | inactive: 29.3% | 
31 | CCN1C(=O)N(CC)C2C1N(C(C)=O)C(=O)N2C(C)=O (stereo not drawn) |  | inconclusive: 18.5 µM [inhibitor, partial curve, poor fit]
32 | CCOC(=O)C1CCN(C(=O)COc2ccc(S(=O)(=O)NC(C)C)cc2)CC1 |  | inconclusive: 0.928 µM [inhibitor, partial curve, poor fit]
33 | O=C(O)C1C2C=CC(C2)C1C(=O)NCCc1ccccc1 (stereo not drawn) | inactive: 76.6% | 
34 | CCCc1n(CC(O)COC2CCCCC2)c2ccccc2[n+]1C (stereo not drawn) | inactive: -2.15% | 
35 | CCn1cc(C(=O)NCc2cccs2)c(=O)c2cc(S(=O)(=O)N3CCOCC3)ccc21 |  | inconclusive: 6.57 µM [inhibitor, single point]
36 | COc1ccc(NC2CCCN(C(=O)c3cc(C)nc4cc(F)ccc34)C2)cc1 (stereo not drawn) | inactive: -24.7% | 
37 | CC1Cc2ccccc2N1C(=O)Cc1cccs1 (stereo not drawn) | inactive: 12.5% | 
38 | CC(C)c1ccc(N2C(=O)CC(Sc3ncccn3)C2=O)cc1 (stereo not drawn) |  | active: 2.08 µM
39 | O=C1/C(=C/c2ccc(O)cc2)CCc2ccc([N+](=O)[O-])cc21 | inactive: 14.4% | 
40 | COc1ccc(-c2csc(N3CCC(c4ccccc4)CC3)n2)cc1 | inactive: 19.5% | 
41 | Cc1sc2ncnc(N3CCC(C(=O)Nc4ccc(Br)cc4Br)CC3)c2c1C |  | inconclusive: 18.5 µM [inhibitor, single point]
42 | CCn1c(C)nc2cc(NC(=O)Nc3cccc(C(C)=O)c3)ccc21 | inactive: -4.53% | 
43 | COC(=O)c1ccc(NC(=O)C2CC(=O)N(c3cc(C)ccc3C)C2)cc1 (stereo not drawn) |  | inconclusive: 18.5 µM [inhibitor, single point]
44 | CC1CN(C(=O)Cn2cc(S(=O)(=O)CC(=O)N3CCOCC3)c3ccccc32)CC(C)O1 (stereo not drawn) | inactive: -12.3% | 
45 | N#CC(C(=O)c1ccco1)c1ccccn1 (stereo not drawn) | inactive: 1.76% | 
46 | O=C(CSc1nnnn1C1CCCCC1)NCc1cccc(C(=O)O)c1 |  | inconclusive: 18.5 µM [inhibitor, single point]
47 | CCc1nnc(NC(=O)Cc2cccs2)s1 | inactive: -22.2% | 
48 | Cc1ccc(CN2CC(=O)N3[C@H]4c5ccccc5OC[C@@H]4[C@H](c4ccccc4)[C@]3(C)C2=O)cc1 |  | inconclusive: 1.85 µM [inhibitor, full curve]
